Test results from paper doi:10.1101/2024.12.04.626816.
These are yes or no findings as the source states them, for the method shown. Binding seen in cells or lysates may run through a third protein. A yes stands for co-enrichment or nearness to the bait. Other partners may have been found.

Amino acid sequences for entries named in this document (tags omitted).
UniProt Q92793: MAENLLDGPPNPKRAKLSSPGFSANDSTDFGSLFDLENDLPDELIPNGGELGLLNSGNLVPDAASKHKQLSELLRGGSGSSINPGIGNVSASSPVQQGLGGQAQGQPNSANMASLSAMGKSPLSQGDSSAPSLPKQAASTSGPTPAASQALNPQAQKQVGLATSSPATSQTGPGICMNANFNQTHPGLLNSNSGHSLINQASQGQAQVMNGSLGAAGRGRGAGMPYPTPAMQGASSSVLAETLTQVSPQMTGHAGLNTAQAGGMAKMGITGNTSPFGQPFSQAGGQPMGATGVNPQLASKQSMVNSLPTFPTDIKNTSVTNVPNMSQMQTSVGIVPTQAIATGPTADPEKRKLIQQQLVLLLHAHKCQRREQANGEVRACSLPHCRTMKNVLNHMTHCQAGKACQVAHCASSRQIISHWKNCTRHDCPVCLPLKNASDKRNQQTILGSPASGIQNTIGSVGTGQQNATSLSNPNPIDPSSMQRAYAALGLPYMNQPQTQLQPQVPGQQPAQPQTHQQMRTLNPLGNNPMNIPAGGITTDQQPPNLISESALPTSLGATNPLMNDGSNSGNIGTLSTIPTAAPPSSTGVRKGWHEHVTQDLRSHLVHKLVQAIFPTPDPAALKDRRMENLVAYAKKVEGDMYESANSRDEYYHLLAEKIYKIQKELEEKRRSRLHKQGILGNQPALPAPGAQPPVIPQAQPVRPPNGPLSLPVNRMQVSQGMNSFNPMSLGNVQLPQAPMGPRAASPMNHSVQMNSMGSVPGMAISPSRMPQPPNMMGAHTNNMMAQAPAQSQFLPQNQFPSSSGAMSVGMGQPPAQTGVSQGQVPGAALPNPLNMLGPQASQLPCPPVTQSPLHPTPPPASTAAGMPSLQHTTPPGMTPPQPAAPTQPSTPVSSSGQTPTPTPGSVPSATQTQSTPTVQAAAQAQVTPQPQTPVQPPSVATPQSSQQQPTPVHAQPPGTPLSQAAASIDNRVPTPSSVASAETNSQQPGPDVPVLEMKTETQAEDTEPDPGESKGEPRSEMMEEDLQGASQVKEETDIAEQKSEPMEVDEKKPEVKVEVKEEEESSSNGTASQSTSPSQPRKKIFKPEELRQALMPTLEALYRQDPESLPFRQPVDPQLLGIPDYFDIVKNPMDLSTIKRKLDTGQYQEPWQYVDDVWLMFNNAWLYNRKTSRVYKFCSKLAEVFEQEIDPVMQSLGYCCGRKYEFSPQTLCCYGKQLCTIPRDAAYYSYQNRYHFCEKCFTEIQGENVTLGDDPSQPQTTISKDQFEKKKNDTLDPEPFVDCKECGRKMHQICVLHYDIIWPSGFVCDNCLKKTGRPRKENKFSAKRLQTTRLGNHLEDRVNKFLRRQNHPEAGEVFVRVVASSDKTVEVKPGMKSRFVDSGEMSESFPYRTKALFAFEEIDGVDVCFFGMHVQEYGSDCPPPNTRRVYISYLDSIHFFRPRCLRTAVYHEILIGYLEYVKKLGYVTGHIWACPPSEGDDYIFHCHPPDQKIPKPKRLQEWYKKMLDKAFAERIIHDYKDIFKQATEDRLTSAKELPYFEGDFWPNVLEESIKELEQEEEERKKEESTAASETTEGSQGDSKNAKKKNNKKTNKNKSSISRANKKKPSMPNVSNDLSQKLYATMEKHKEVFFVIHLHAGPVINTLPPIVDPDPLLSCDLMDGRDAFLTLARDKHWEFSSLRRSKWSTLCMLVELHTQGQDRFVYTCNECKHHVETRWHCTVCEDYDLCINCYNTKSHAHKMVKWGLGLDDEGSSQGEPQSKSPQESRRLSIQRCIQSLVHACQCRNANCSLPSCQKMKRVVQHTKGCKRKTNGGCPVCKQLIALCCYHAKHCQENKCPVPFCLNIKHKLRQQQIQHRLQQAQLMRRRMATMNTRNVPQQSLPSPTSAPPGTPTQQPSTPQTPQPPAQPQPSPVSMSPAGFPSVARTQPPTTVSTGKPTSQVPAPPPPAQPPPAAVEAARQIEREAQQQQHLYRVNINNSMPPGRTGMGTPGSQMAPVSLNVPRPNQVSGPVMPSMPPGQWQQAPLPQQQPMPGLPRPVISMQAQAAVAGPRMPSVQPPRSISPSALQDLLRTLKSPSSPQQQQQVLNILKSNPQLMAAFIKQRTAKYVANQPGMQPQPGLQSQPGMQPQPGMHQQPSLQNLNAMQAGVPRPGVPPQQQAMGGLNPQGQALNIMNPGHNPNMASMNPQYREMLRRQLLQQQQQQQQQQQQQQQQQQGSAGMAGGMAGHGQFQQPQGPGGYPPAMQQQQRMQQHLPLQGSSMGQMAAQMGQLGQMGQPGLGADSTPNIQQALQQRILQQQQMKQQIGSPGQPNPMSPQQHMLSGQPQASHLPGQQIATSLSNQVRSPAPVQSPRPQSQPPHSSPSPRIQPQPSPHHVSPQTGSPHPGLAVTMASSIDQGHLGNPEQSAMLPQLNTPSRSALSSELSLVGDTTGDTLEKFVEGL

T1: FOXA2 (lentiviral, in LuNE cells) (human) (UniProt Q9Y261)
T1 sequence: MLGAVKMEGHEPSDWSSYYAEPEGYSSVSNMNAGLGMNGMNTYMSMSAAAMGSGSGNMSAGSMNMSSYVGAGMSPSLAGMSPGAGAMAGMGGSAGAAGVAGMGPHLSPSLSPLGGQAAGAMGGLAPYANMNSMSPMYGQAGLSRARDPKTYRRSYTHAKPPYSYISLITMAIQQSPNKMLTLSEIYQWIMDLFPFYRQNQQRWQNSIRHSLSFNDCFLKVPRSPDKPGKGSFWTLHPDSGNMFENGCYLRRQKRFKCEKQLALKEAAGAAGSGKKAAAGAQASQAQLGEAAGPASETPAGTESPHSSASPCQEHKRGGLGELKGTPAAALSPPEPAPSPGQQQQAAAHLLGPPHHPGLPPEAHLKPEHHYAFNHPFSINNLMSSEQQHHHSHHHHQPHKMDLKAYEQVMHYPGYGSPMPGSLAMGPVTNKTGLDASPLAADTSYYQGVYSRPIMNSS

T2: FOXA2 (lentiviral, in LuNE cells) (human), Q9Y261
T2 chain: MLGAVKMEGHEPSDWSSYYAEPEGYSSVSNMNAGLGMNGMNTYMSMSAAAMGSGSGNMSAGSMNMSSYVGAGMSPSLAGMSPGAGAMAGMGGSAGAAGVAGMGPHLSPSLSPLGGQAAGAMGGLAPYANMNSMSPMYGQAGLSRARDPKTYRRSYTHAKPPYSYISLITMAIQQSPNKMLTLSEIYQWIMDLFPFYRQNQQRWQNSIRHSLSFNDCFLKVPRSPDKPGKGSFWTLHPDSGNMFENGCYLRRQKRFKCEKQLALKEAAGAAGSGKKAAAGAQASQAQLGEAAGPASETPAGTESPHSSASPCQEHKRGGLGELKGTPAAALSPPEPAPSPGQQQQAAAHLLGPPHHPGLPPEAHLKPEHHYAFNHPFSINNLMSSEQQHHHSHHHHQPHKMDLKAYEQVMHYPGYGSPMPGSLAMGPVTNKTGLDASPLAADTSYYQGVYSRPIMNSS


Legend:
[1] = target: T1, FOXA2 (lentiviral, in LuNE cells) (human); experiment: affinity purification with mass spectrometry
[2] = target: T2, FOXA2 (lentiviral, in LuNE cells) …; experiment: affinity purification with mass spectrometry; details: remark: other sources report otherwise

Row | Molecule | binding [1] | binding [2]
1 | CREBBP (CBP) (from UniProt Q92793 1-2442) (enzyme) | binds | 
2 | NKX2-1, P43699 1-371 (protein) MSMSPKHTTPFSVSDILSPLEESYKKVGMEGGGLGAPLAAYRQGQAAPPTAAMQQHAVGHHGAVTAAYHMTAAGVPQLSHSAVGGYCNGNLGNMSELPPYQDTMRNSASGPGWYGANPDPRFPAISRFMGPASGMNMSGMGGLGSLGDVSKNMAPLPSAPRRKRRVLFSQAQVYELERRFKQQKYLSAPEREHLASMIHLTPTQVKIWFQNHRYKMKRQAKDKAAQQQLQQDSGGGGGGGGTGCPQQQQAQQQSPRRVAVPVLVKDGKPCQAGAPAPGAASLQGHAQQQAQHQAQAAQAAAAAISVGSGGAGLGAHPGHQPGSAGQSPDLAHHAASPAALQGQVSSLSHLNSSGSDYGTMSCSTLLYGRTW |  | binds
